Reference: PubChem BioAssay AID1259254 (NCATS, 2017)
Assay: 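Genome-wide screen for genes that prevent DNA re-replication in cancer cells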 (primary screen). Cell system: human HCT116 colorectal cancer cells. Reagent: single siRNA against human genes. Timing: 3 days. Detection: 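Imaged Hoechst DNA stain sorts each cell into a cycle phase by DNA amount; per plate, G2 fraction set to 0% for non-targeting and 100% for GMNN siRNA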. Direction: G2 robust z-score and G2 cells, % of GMNN control: higher = more G2 cells, more excess DNA replication; raw share of cells in G2: higher = larger share of cells with G2 DNA content. Active means: 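Active siRNAs have a G2 robust z of 5 or more median absolute deviations over the median, which in these data means about 38% or higher of GMNN control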.
In all, the deposit lists about 59,000 reagents; below is a part drawn at random. About 1,550 of all reagents (2.6%) were called active. 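G2 share is only a proxy for re-replication; each gene was hit by three separate siRNAs, and active genes were retested.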 Raw values are not corrected between plates. The numbers tell different reagents against one gene apart. Reagent sequences are not shown. The record does not give: the amount of reagent.

gene knocked down | siRNA no. | G2 robust z-score | G2 cells, % of GMNN control | raw share of cells in G2 (%) | Outcome
VWA1 (GeneID 64856) | 1 | -0.441 | -0.135 | 4.18 | inactive
VWA1 (GeneID 64856) | 2 | -1.33 | -6.4 | 2.08 | inactive
VWA1 (GeneID 64856) | 3 | -0.179 | 1.71 | 6.36 | inactive
FAM167B (GeneID 84734) | 1 | 0.236 | 4.62 | 4.83 | inactive
FAM167B (GeneID 84734) | 2 | 0.76 | 8.32 | 4.93 | inactive
FAM167B (GeneID 84734) | 3 | 0.216 | 4.49 | 5.6 | inactive
TEX15 (GeneID 56154) | 1 | 0.706 | 7.94 | 7.47 | inactive
TEX15 (GeneID 56154) | 2 | 0.102 | 3.69 | 6.22 | inactive
TEX15 (GeneID 56154) | 3 | -0.758 | -2.37 | 2.28 | inactive
UPK1A (GeneID 11045) | 1 | -0.357 | 0.452 | 5.16 | inactive
UPK1A (GeneID 11045) | 2 | -0.0301 | 2.76 | 5.27 | inactive
UPK1A (GeneID 11045) | 3 | -0.704 | -1.99 | 2.43 | inactive
SRD5A3 (GeneID 79644) | 1 | 0.882 | 9.18 | 9.25 | inactive
SRD5A3 (GeneID 79644) | 2 | 0.775 | 8.42 | 7.24 | inactive
SRD5A3 (GeneID 79644) | 3 | 2.66 | 21.7 | 12.8 | inactive
CYP20A1 (GeneID 57404) | 1 | 2.15 | 18.1 | 10.8 | inactive
CYP20A1 (GeneID 57404) | 2 | 0.633 | 7.42 | 8.72 | inactive
CYP20A1 (GeneID 57404) | 3 | -0.122 | 2.11 | 5.09 | inactive
OR4N5 (GeneID 390437) | 1 | -0.742 | -2.26 | 3.67 | inactive
OR4N5 (GeneID 390437) | 2 | 0.0426 | 3.27 | 4.89 | inactive
OR4N5 (GeneID 390437) | 3 | -0.691 | -1.9 | 2.58 | inactive
GMPS (GeneID 8833) | 1 | -0.884 | -3.25 | 4.12 | inactive
GMPS (GeneID 8833) | 2 | 1.69 | 14.8 | 10 | inactive
GMPS (GeneID 8833) | 3 | -1.07 | -4.54 | 2.47 | inactive
HMGN1 (GeneID 3150) | 1 | -0.52 | -0.692 | 3.95 | inactive
HMGN1 (GeneID 3150) | 2 | -0.243 | 1.25 | 6.16 | inactive
HMGN1 (GeneID 3150) | 3 | 0.679 | 7.74 | 7.86 | inactive
ANXA2 (GeneID 302) | 1 | 0.119 | 3.8 | 5.41 | inactive
ANXA2 (GeneID 302) | 2 | 0.821 | 8.75 | 7.7 | inactive
ANXA2 (GeneID 302) | 3 | -0.525 | -0.725 | 4.82 | inactive
PARG (GeneID 8505) | 1 | 3.36 | 26.6 | 16.6 | inactive
PARG (GeneID 8505) | 2 | 0.227 | 4.56 | 6.87 | inactive
PARG (GeneID 8505) | 3 | -0.215 | 1.46 | 5.23 | inactive
ZNF442 (GeneID 79973) | 1 | 2.27 | 18.9 | 9.47 | inactive
ZNF442 (GeneID 79973) | 2 | 1.02 | 10.1 | 10.5 | inactive
ZNF442 (GeneID 79973) | 3 | -0.0504 | 2.61 | 4.45 | inactive
XPNPEP2 (GeneID 7512) | 1 | -0.363 | 0.411 | 5.7 | inactive
XPNPEP2 (GeneID 7512) | 2 | 0.479 | 6.33 | 7.15 | inactive
XPNPEP2 (GeneID 7512) | 3 | 2.51 | 20.6 | 11.6 | inactive
STRN4 (GeneID 29888) | 1 | 0.0582 | 3.38 | 5.14 | inactive
STRN4 (GeneID 29888) | 2 | 0.0525 | 3.34 | 5.81 | inactive
STRN4 (GeneID 29888) | 3 | 0.856 | 8.99 | 6.09 | inactive
ZBTB21 (GeneID 49854) | 1 | -0.423 | -0.00731 | 2.79 | inactive
ZBTB21 (GeneID 49854) | 2 | -0.0493 | 2.62 | 7.09 | inactive
ZBTB21 (GeneID 49854) | 3 | 0.206 | 4.42 | 5.02 | inactive
PFN1P6 (GeneID 645126) | 1 | -0.099 | 2.27 | 4.5 | inactive
PFN1P6 (GeneID 645126) | 2 | 0.64 | 7.47 | 5.96 | inactive
PFN1P6 (GeneID 645126) | 3 | -0.777 | -2.5 | 2.42 | inactive
PCDH12 (GeneID 51294) | 1 | 2.49 | 20.5 | 15.2 | inactive
PCDH12 (GeneID 51294) | 2 | 0.27 | 4.87 | 6.04 | inactive
PCDH12 (GeneID 51294) | 3 | -1.21 | -5.52 | 1.69 | inactive
LY9 (GeneID 4063) | 1 | 2.06 | 17.4 | 12.1 | inactive
LY9 (GeneID 4063) | 2 | -0.761 | -2.39 | 4.52 | inactive
LY9 (GeneID 4063) | 3 | -1.06 | -4.51 | 1.71 | inactive
FAM178B (GeneID 51252) | 1 | -0.197 | 1.58 | 4.46 | inactive
FAM178B (GeneID 51252) | 2 | 0.235 | 4.62 | 6.3 | inactive
FAM178B (GeneID 51252) | 3 | -0.753 | -2.33 | 2.52 | inactive
LOC644727 (retired record) (GeneID 644727) | 1 | -0.52 | -0.692 | 3.37 | inactive
LOC644727 (retired record) (GeneID 644727) | 2 | 3.19 | 25.4 | 12.4 | inactive
LOC644727 (retired record) (GeneID 644727) | 3 | -0.384 | 0.267 | 3.22 | inactive
PGF (GeneID 5228) | 1 | -0.326 | 0.671 | 5.26 | inactive
PGF (GeneID 5228) | 2 | -0.812 | -2.75 | 3.14 | inactive
PGF (GeneID 5228) | 3 | 1.45 | 13.2 | 8.11 | inactive
TST (GeneID 7263) | 1 | 3.66 | 28.7 | 17.7 | inactive
TST (GeneID 7263) | 2 | 1.6 | 14.2 | 9.55 | inactive
TST (GeneID 7263) | 3 | -0.252 | 1.19 | 4.87 | inactive
ZFYVE21 (GeneID 79038) | 1 | -0.576 | -1.09 | 2.41 | inactive
ZFYVE21 (GeneID 79038) | 2 | -0.248 | 1.22 | 6.46 | inactive
ZFYVE21 (GeneID 79038) | 3 | -0.0392 | 2.69 | 4.48 | inactive

4 successive reagents already listed, for reference:
gene knocked down | siRNA no. | G2 robust z-score | G2 cells, % of GMNN control | raw share of cells in G2 (%) | Outcome
ZBTB21 (GeneID 49854) | 2 | -0.0493 | 2.62 | 7.09 | inactive
ZBTB21 (GeneID 49854) | 3 | 0.206 | 4.42 | 5.02 | inactive
PFN1P6 (GeneID 645126) | 1 | -0.099 | 2.27 | 4.5 | inactive
PFN1P6 (GeneID 645126) | 2 | 0.64 | 7.47 | 5.96 | inactive
